# No constants are given. Whether binding was seen depends on the method and setting. Binding seen in cells or lysates may run through a third protein. These calls come from enrichment with a bait or labelling near it, and not all partners need be listed.
# By UniProt entry, the sequences of proteins in these tests, tags left out.
# UniProt P03431: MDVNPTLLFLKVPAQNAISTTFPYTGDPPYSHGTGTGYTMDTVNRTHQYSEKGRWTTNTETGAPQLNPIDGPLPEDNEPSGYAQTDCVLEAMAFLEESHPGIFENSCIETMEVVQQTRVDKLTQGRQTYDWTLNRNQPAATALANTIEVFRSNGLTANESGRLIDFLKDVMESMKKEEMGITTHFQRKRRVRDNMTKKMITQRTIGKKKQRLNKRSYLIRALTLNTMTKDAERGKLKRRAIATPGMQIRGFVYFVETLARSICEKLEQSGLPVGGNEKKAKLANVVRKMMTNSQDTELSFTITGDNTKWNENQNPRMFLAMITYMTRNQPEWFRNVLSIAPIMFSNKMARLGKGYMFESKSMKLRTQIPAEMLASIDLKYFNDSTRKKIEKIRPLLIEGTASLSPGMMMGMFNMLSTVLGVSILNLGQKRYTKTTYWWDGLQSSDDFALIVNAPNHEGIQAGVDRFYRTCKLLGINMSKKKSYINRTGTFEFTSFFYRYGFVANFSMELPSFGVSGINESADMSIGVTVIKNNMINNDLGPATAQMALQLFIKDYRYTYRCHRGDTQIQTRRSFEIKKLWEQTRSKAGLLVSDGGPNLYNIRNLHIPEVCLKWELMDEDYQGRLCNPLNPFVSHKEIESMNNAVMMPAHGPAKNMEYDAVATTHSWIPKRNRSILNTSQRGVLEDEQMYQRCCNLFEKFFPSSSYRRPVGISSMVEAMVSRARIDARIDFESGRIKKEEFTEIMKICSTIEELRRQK
# B1: HNRNPR (protein, UniProt O43390 1-633)
# chain: MANQVNGNAVQLKEEEEPMDTSSVTHTEHYKTLIEAGLPQKVAERLDEIFQTGLVAYVDLDERAIDALREFNEEGALSVLQQFKESDLSHVQNKSAFLCGVMKTYRQREKQGSKVQESTKGPDEAKIKALLERTGYTLDVTTGQRKYGGPPPDSVYSGVQPGIGTEVFVGKIPRDLYEDELVPLFEKAGPIWDLRLMMDPLSGQNRGYAFITFCGKEAAQEAVKLCDSYEIRPGKHLGVCISVANNRLFVGSIPKNKTKENILEEFSKVTEGLVDVILYHQPDDKKKNRGFCFLEYEDHKSAAQARRRLMSGKVKVWGNVVTVEWADPVEEPDPEVMAKVKVLFVRNLATTVTEEILEKSFSEFGKLERVKKLKDYAFVHFEDRGAAVKAMDEMNGKEIEGEEIEIVLAKPPDKKRKERQAARQASRSTAYEDYYYHPPPRMPPPIRGRGRGGGRGGYGYPPDYYGYEDYYDDYYGYDYHDYRGGYEDPYYGYDDGYAVRGRGGGRGGRGAPPPPRGRGAPPPRGRAGYSQRGAPLGPPRGSRGGRGGPAQQQRGRGSRGSRGNRGGNVGGKRKADGYNQPDSKRRQTNNQQNWGSQPIAQQPLQQGGDYSGNYGYNNDNQEFYQDTYGQQWK
# B2: MIF (protein, UniProt P14174 1-115)
# chain: MPMFIVNTNVPRASVPDGFLSELTQQLAQATGKPPQYIAVHVVPDQLMAFGGSSEPCALCSLHSIGKIGGAQNRSYSKLLCGLLAERLRISPDRVYINYYDMNAANVGWNNSTFA
# B3: FKBP4 (protein, UniProt Q02790 1-459)
# chain: MTAEEMKATESGAQSAPLPMEGVDISPKQDEGVLKVIKREGTGTEMPMIGDRVFVHYTGWLLDGTKFDSSLDRKDKFSFDLGKGEVIKAWDIAIATMKVGEVCHITCKPEYAYGSAGSPPKIPPNATLVFEVELFEFKGEDLTEEEDGGIIRRIQTRGEGYAKPNEGAIVEVALEGYYKDKLFDQRELRFEIGEGENLDLPYGLERAIQRMEKGEHSIVYLKPSYAFGSVGKEKFQIPPNAELKYELHLKSFEKAKESWEMNSEEKLEQSTIVKERGTVYFKEGKYKQALLQYKKIVSWLEYESSFSNEEAQKAQALRLASHLNLAMCHLKLQAFSAAIESCNKALELDSNNEKGLFRRGEAHLAVNDFELARADFQKVLQLYPNNKAAKTQLAVCQQRIRRQLAREKKLYANMFERLAEEENKAKAEASSGDHPTDTEMKEEQKSNTAGSQSQVETEA
# B4: MCDRH (protein, UniProt K0J110 1-731)
# chain: MPGKLLWGDIMELEDPWRSPRARRRRGKRVTEGSQGTIMTLMRNQKLEKNVLQMTWMLPRPKKSKMKEKLNGDTEEGFNRLSDEFSKSHKSRRKDLPNGDIDEYEKKSKRVSSLDTSTHKSSDNKLEETLTREQKEGAFSNFPISEETIKLLKGRGVTYLFPIQLKTFGHVYEGKDLIAQARTGTGKTFSFAIPLIERLQRNQETIKKSRSPKVLVLAPTRELANQVAKDFKDITRKLSVACFYGGTSYQSQINHIRNGIDILVGTPGRIKDHLQSGRLDLSKLRHVVLDEVDQMLDLGFAEQVEDIIHESYKTDSEDNPQTLLFSATCPQWVYKVAKKYMKSRYEQVALVGKMTQKAATPVEHLAIQCHWSQRPAVIGDVLQVYSGSEGRAIIFCETKKNVTEMAMNPHIKQNAQCLHGDIAQSQREITLKGFREGSFKVLVATNVAARGLDNPEVDLVIQSSPPQDVESYIHRSGRTGRAGRTGICICFYQPRERGQLRYVEQKAGITFKRVGVPSTMDLVKSKSMDAIRSLASVSYAAVSAQRLIEEKGAVDALAAALAHISGASSFEPRSLITSDKGFVTMTLESLEEYRMSAVAWKELNRKLSSNAVSQITRMCLLKGIWGVCFDVPTTESERLQAEWHDSDWILSVPAKLPEIEEYYDGNTSSNSRQRSGWSSGRSGRSGRSGGRSGGRSGRQSRQGSRSGSRQDGRRRSGNRNRSRSGGPQTEF
# B5: KHSRP (protein, UniProt Q92945 1-711)
# chain: MSDYSTGGPPPGPPPPAGGGGGAGGAGGGPPPGPPGAGDRGGGGPGGGGPGGGSAGGPSQPPGGGGPGIRKDAFADAVQRARQIAAKIGGDAATTVNNSTPDFGFGGQKRQLEDGDQPESKKLASQGDSISSQLGPIHPPPRTSMTEEYRVPDGMVGLIIGRGGEQINKIQQDSGCKVQISPDSGGLPERSVSLTGAPESVQKAKMMLDDIVSRGRGGPPGQFHDNANGGQNGTVQEIMIPAGKAGLVIGKGGETIKQLQERAGVKMILIQDGSQNTNVDKPLRIIGDPYKVQQACEMVMDILRERDQGGFGDRNEYGSRIGGGIDVPVPRHSVGVVIGRSGEMIKKIQNDAGVRIQFKQDDGTGPEKIAHIMGPPDRCEHAARIINDLLQSLRSGPPGPPGGPGMPPGGRGRGRGQGNWGPPGGEMTFSIPTHKCGLVIGRGGENVKAINQQTGAFVEISRQLPPNGDPNFKLFIIRGSPQQIDHAKQLIEEKIEGPLCPVGPGPGGPGPAGPMGPFNPGPFNQGPPGAPPHAGGPPPHQYPPQGWGNTYPQWQPPAPHDPSKAAAAAADPNAAWAAYYSHYYQQPPGPVPGPAPAPAAPPAQGEPPQPPPTGQSDYTKAWEEYYKKIGQQPQQPGAPPQQDYTKAWEEYYKKQAQVATGGGPGAPPGSQPDYSAAWAEYYRQQAAYYGQTPGPGGPQPPPTQQGQQQAQ
# Target: Flag-PB1 (Flag-tagged polymerase basic protein 1 of A/Puerto Rico/8/1934 H1N1) (influenza A virus A/Puerto Rico/8/1934 (PR8, H1N1)) (UniProt P03431)
# Assay: affinity purification with mass spectrometry
row,Binder,binding
1,B1,binds
2,B2,binds
3,B3,binds
4,B4,binds
5,B5,binds

# Source: publication PMC6232469
